Each structure is given as a SMILES string. In all, about 1,400 compounds went through this assay and about 45 (3%) were called active.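 How the source made its calls: active means half-maximal dose of signal decrease from fit no higher than ten times the top valid tested dose; inconclusive means fit invalid, or curve flat with 30 to 70% inhibition; inactive means the rest.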 The list shows a part of the results. Potency and affinity values are given separately.

Sequences of proteins named here, by UniProt entry; tags and fusion partners are left off. A change or cut given only in a name is not applied to a line headed by its entry.
UniProt O75164: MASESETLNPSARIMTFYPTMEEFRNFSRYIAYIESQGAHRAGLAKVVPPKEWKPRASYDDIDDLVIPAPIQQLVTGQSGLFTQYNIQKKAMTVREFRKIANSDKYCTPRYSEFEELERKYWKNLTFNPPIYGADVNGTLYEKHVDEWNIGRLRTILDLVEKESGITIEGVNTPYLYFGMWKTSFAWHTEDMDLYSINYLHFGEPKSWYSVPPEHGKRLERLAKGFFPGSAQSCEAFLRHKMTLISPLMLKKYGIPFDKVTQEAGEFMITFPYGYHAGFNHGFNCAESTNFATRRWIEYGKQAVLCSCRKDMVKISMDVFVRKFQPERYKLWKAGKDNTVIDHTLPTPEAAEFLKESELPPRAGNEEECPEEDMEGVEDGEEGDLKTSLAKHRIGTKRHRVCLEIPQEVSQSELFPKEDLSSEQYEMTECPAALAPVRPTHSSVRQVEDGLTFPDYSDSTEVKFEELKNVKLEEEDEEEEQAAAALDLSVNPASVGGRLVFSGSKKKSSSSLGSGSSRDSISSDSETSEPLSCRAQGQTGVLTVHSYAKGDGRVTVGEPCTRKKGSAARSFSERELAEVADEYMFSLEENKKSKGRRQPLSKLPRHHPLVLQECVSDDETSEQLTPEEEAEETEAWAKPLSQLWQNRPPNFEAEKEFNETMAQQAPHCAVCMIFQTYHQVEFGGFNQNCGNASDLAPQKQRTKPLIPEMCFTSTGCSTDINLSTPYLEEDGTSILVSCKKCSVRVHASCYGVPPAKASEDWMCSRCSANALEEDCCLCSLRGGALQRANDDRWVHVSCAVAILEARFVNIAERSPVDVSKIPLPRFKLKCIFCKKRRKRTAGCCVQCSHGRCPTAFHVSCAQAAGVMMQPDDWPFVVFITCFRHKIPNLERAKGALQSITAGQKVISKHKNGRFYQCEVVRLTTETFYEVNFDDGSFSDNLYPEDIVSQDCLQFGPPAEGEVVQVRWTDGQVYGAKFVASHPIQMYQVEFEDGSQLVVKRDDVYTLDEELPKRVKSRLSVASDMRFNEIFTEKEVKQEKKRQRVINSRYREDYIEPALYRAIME

The assay addresses Lysine-specific demethylase 4A (Homo sapiens) (UniProt O75164). In words: inhibition of JMJD2A H3K9me3 demethylation – biochemical, DELFIA europium, cherry-picked samples, selectivity assay for GASC-1 inhibitor project, dose response (AID 488840).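 Further: europium signal reports the dimethyl H3K9 product detected by antibody so inhibitors lower it; 0% = median of neutral control wells and -100% = median of positive control wells.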 Particulars: GST-JMJD2A(1-420) H3K9me3 demethylation; at 6 µM (top of the series).
As for `CN1CCN(c2ccc(C=O)cc2)CC1`, the activity change, negative = inhibition is inactive: 0.323%.

Turning to `O=C1NC(=O)N(Cc2ccc(F)cc2)C(=O)/C1=C\C=C\c1ccco1`, the activity change, negative = inhibition was inactive: 8.19%.

Regarding `CCOC(=O)C1=CC(=C2C(=O)N(CC)C(=S)N(CC)C2=O)c2ccccc2O1`, the activity change, negative = inhibition was inactive: -8.54%.

For the molecule `C=CCC1C(=O)NC(=S)NC1=O`, the activity change, negative = inhibition is inactive: 1%.

With `Cc1cccc(N2C(=O)NC(=O)/C(=C/c3ccc(N4CCOCC4)cc3)C2=O)c1`, the activity change, negative = inhibition was inactive: 3.22%.

With `CN1C(=O)C(=Cc2ccc(N3CCCCCC3)cc2)C(=O)N(C)C1=O`, the activity change, negative = inhibition was inactive: -1.93%.

For the molecule `CC1(C)CC(=O)C(C2(O)C(=O)NC(=O)NC2=O)=C(O)C1`, the activity change, negative = inhibition was inactive: -0.902%.

Regarding `CCN(CC)c1ccc(/C=C2\C(=O)NC(=O)N(CC3CCCO3)C2=O)cc1` (centres undefined), the activity change, negative = inhibition was inactive: 4.96%.

In the case of `CN(C)c1ccc(/C=C2\C(=O)NC(=O)N(CCc3ccc(F)cc3)C2=O)cc1`, the activity change, negative = inhibition was inactive: 4.14%.

As for `O=C1NC(=O)C(C(CC(=O)c2ccccc2)c2ccccc2)C(=O)N1` (centres undefined), the activity change, negative = inhibition was inactive: 4.56%.

For `C[C@@H]1CCC2[C@@H](C)C(=O)O[C@@H]3OC4(C)CCC1[C@@]23OO4` (some centres undefined), the activity change, negative = inhibition was inactive: -13.7%.

As to `Cc1ccc2[nH]c(=S)n(-c3cccnc3)c(=O)c2c1`, the activity change, negative = inhibition is inactive: 0.86%.

For `CN1C(=O)N(C)C(=O)C2(Cc3ccccc3N3CCCC32)C1=O` (centres undefined), the activity change, negative = inhibition was inactive: -3.83%.

Regarding `N/C(=N\[N+](=O)[O-])N1CCN(C(=O)c2ccccc2)CC1`, the activity change, negative = inhibition was inactive: 4.96%.

For `Cc1cc(C)cc(OCCOc2cccc(C=C3C(=O)NC(=O)NC3=O)c2)c1`, the activity change, negative = inhibition was inactive: -11.9%.

For the molecule `Cc1[nH]c2ccc(OC(F)(F)F)cc2c1CCNCc1cccc([N+](=O)[O-])c1`, the activity change, negative = inhibition is inactive: 0.553%.

Take `CC(=NCc1ccc(F)cc1)c1c(O)n(C)c(=O)n(C)c1=O`: the activity change, negative = inhibition was inactive: 1.79%.

`CCN1C(=O)C(=C/C=C/c2ccco2)C(=O)N(CC)C1=S`: the activity change, negative = inhibition is inactive: 19.8%.

Regarding `COCc1cc(OC(=O)N(C)C)nc2c1c(C)nn2C`, the activity change, negative = inhibition was inactive: 1.08%.

On to `O=C(c1cccs1)N1C2CCC1CC(O)(c1cccnc1)C2` (centres undefined), for which the activity change, negative = inhibition was inactive: 5.89%.

As to `N#CC(C#N)=Cc1ccc(O)c(O)c1`, the activity change, negative = inhibition is inactive: 1.99%.

In the case of `CN(C)[C@@H]1C(=O)C(C(N)=O)=C(O)[C@@]2(O)C(=O)C3=C(O)c4c(O)cccc4[C@@](C)(O)C3C[C@@H]12` (some centres undefined), the activity change, negative = inhibition is inactive: 1.81%.

On to `C=CCn1c(C)c(C=C2C(=O)NC(=O)NC2=O)c2ccccc21`, for which the activity change, negative = inhibition is inactive: 14.1%.

With `COc1cccc(N2C(=O)NC(=O)/C(=C/c3ccc4c(c3)Cc3ccccc3-4)C2=O)c1`, the activity change, negative = inhibition was inactive: 6.38%.

Regarding `CCCCCSc1cc(O)c(C(CNC)C(C)C)cc1OC` (centres undefined), the activity change, negative = inhibition was inactive: 0.378%.

Take `Cc1sc2c(c1C)C(c1ccc(C(C)(C)C)cc1)=NCC(=O)N2CC(=O)Nc1nccs1`: the activity change, negative = inhibition was inactive: 0.283%.

Take `CC(C)(C)[C@]1(O)C[C@@H]2OC(=O)C[C@@]23C(=O)O[C@@H]2OC(=O)[C@@H](O)C213` (some centres undefined): the activity change, negative = inhibition is inactive: -4.62%.

As to `Cc1ccc2nc3c(cc2c1)CC1(C(=O)N(C)C(=O)N(C)C1=O)C1CCCCN31` (centres undefined), the activity change, negative = inhibition is inactive: 2.53%.

`CN1CCN(c2nc3ccccn3c(=O)c2C=C2C(=O)N(C)C(=O)N(C)C2=O)CC1`: the activity change, negative = inhibition was inactive: -1.42%.

Consider `COc1cc(Br)cc(CN2CCN(C)CC2)c1O`, for which the activity change, negative = inhibition is inactive: -2.5%.

Turning to `O=C1NC(=O)C(=Cc2csc3ccccc23)C(=O)N1`, the activity change, negative = inhibition is inactive: 2.89%.

With `C=CCN1C(=O)NC(=O)/C(=C/c2ccoc2)C1=O`, the activity change, negative = inhibition is inactive: 9.57%.

Turning to `CCN1CCN(c2ccc([N+](=O)[O-])cc2C=C2C(=O)NC(=O)NC2=O)CC1`, the activity change, negative = inhibition was inactive: 1.98%.

For `COC(=O)C1=C(c2ccc(OCc3ccccc3)cc2)C[C@@H]2CC[C@H]1N2C(=O)NCc1ccc([N+](=O)[O-])cc1`, the activity change, negative = inhibition is inactive: -2.61%.

In the case of `C=CCN1C(=O)NC(=O)/C(=C/c2ccc(OC)c(CSc3ccccn3)c2)C1=O`, the activity change, negative = inhibition is inactive: 1.34%.

As for `O=C1NC(=S)N(C2CC2)C(=O)/C1=C/c1ccc2c(c1)CCN2CCCCl`, the activity change, negative = inhibition is inactive: 0.27%.

For the molecule `O=C1NC(=S)NC(=O)C1C1CCCCC1`, the activity change, negative = inhibition is inactive: 3.01%.

As to `CN1C(=O)C(Cc2ccc(OCc3ccccc3)cc2)C(=O)N(C)C1=O`, the activity change, negative = inhibition was inactive: -5.87%.

In the case of `NCC(O)c1cc(O)c(O)cc1F` (centres undefined), the activity change, negative = inhibition was inactive: 5.7%.

Regarding `O=P(OCC(F)(F)C(F)F)(N1CCCCC1)N1CCCCC1`, the activity change, negative = inhibition is inactive: -1.29%.

Take `O=C1NC(=O)C(=Cc2ccc(Sc3ccccc3)o2)C(=O)N1`: the activity change, negative = inhibition was inactive: -4.29%.

Consider `Cc1cccc(N2C(=O)NC(=O)/C(=C/c3ccc([N+](=O)[O-])o3)C2=O)c1`, for which the activity change, negative = inhibition was inactive: 7.26%.

For the molecule `CCN1C(=O)NC(=O)/C(=C\c2cn(CC(=O)N3CCCCC3)c3ccccc23)C1=O`, the activity change, negative = inhibition was inactive: 3.34%.

As to `COc1ccc(/C=C2/C(=O)NC(=O)N(C3CCCCC3)C2=O)cc1CSc1ccccn1`, the activity change, negative = inhibition was inactive: -14.3%.

As for `COc1ccc(CC2C(=O)NC(=O)N(c3ccccc3)C2=O)c(OC)c1` (centres undefined), the activity change, negative = inhibition was inactive: 9.22%.

For the molecule `COc1cc(CC2C(=O)N(C)C(=O)N(C)C2=O)ccc1OCc1ccccc1`, the activity change, negative = inhibition was inactive: 11.6%.

In the case of `CN(C)c1ccc(/C=C2/C(=O)NC(=O)N(Cc3ccco3)C2=O)cc1`, the activity change, negative = inhibition is inactive: -1.48%.

Regarding `CCc1ccc(N2C(=O)NC(=O)/C(=C\c3cc(C)n(-c4cc(C(=O)O)cc(C(=O)O)c4)c3C)C2=O)cc1`, the activity change, negative = inhibition was inactive: 5.07%.

On to `Cc1cccc(N2C(=O)NC(=O)/C(=C\c3cnc(-c4ccccc4)nc3)C2=O)c1`, for which the activity change, negative = inhibition is inactive: 7.61%.

Consider `CCC(=NCC1CCCO1)c1c(O)[nH]c(=O)[nH]c1=O` (centres undefined), for which the activity change, negative = inhibition is inactive: 2.64%.

Take `CCOc1cc(C=C2C(=O)NC(=O)NC2=O)cc([N+](=O)[O-])c1O`: the activity change, negative = inhibition is inactive: 3.75%.

`CC1(C)OC(c2ccccc2)=C/C(=C/C=C2C(=O)NC(=S)NC2=O)O1`: the activity change, negative = inhibition is inactive: -2.37%.

Regarding `C=CCn1c(O)c(/C(C)=N/NC(=S)Nc2ccccc2)c(=O)[nH]c1=O`, the activity change, negative = inhibition was inactive: -2.23%.

In the case of `Cc1cc(C=C2C(=O)NC(=S)NC2=O)c(C)n1-c1ccc2c(c1)OCO2`, the activity change, negative = inhibition was inactive: 3.41%.

On to `O=C1NC(=O)N(Cc2ccccc2)C(=O)/C1=C/C=C/c1ccco1`, for which the activity change, negative = inhibition is inactive: 0.259%.

For the molecule `CC1C(c2cccs2)=[N+]([O-])C(C)(C(=O)c2ccc(Cl)cc2)N1O` (centres undefined), the activity change, negative = inhibition is inactive: 6.33%.

For `COc1ccc(N2C(=O)NC(=O)/C(=C/c3cccc(OC(=O)c4cccs4)c3)C2=O)cc1Cl`, the activity change, negative = inhibition is inactive: 0.914%.

For `CCOC(=O)/C(=N\Nc1ccccc1)N1CC1`, the activity change, negative = inhibition is inactive: -4.77%.

For the molecule `c1ccc2c3c(ccc2c1)OCC1CONC31` (centres undefined), the activity change, negative = inhibition was inactive: -3.27%.

Values taken from PubChem BioAssay AID488840 (Broad Institute, 2010).
